The test system of the assay is HT-29 cells. The experiment in a line: Microscopic cytology of bell shaped metakaryotic nuclei in treated HT-29 cells (Hoechst, DAPI, Feulgen staining). Conditions: HT-29 cultures. Format: cell-based, human.

Each structure is given as a SMILES string.

As to `COc1ccc2cc([C@H](C)C(=O)O)ccc2c1` [naproxen], the “condensation of chromatin in bell shaped metakaryotic nuclei” value is reported as “do not induce the condensation of chromatin”.

The record behind these values is patent publication US20170081698A1, “SURVIVAL ASSAYS FOR METAKARYOTIC STEM CELLS” (priority 2014, published 2017).
